The assay concerns the target T1, PD-L1 on 293F cells (UniProt Q9NZQ7 19-290, limits assumed).
T1 construct: whole, on cells
Kind of assay: flow cytometry on 293F cells expressing PD-L1. The protocol: Antibody (humanized antibodies 30, 38) dilutions at different concentrations was added in a volume of 50 μl, mixed and incubated at room temperature for 30 min. The cells were washed twice with FACS buffer, contacted with 100 μl of goat anti-human IgG-PE antibody, and incubated for 30 min in the dark. FACS was performed after washing twice with FACS buffer.

Protein sequences, listed by entry. Tags and fused reporters are not part of them. Residues count along the entry.
UniProt Q9NZQ7, residues 19-290: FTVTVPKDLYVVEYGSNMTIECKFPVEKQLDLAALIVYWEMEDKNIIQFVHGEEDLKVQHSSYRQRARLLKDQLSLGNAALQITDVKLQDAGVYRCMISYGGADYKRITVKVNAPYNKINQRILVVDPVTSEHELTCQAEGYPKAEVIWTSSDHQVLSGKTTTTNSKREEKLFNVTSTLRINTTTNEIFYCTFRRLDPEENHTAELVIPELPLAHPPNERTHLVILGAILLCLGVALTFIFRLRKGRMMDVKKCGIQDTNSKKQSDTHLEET

This passage reports binding results from patent publication US20190367618A1 (SHANGHAI JUNSHI BIOSCIENCES, published 2019).

Results are given in words; binding and its absence hold for the method and conditions named. Some results given as binding are weak or reduced against the parent protein; the word gives no strength.

B1: humanized antibody 30 (antibody, V domains shown)
VH: QGQLQESGPSLVKPSQTLSLTCTVSGDSITRGYWNWIRKHPGKGLEYIGYISYTGSTYSNLSLKSRVTISRDTSKNQYYLKLSSVTAADTAVYYCATSTGWLDPVDYWGQGTLVTVSS
VL: DIVMTQSPDSLAVSLGERATINCKASQNVDTSVAWFQQKPGQPPKALIYSASFRYSGVPDRFSGSGSGTDFTLTISSLQAEDVAVYFCQQYYGYPFTFGQGTKLEIK
In the case of B1, the binding result is “binds”.

B2: humanized antibody 38 (antibody, V domains shown)
VH: QGQLQESGPSLVKPSQTLSLTCTVSGDSITRGYWNWIRKPPGKGLEYIGYISYTGSTYSNLSLKSRVTISRDTSKNQYYLKLSSVTAADTAVYYCATSTGWLDPVDYWGQGTLVTVSS
VL: DIQMTQSPSSLSASVGDRVTITCRASQNVDTSVAWFQQKPGKAPKALIYSASFRYSGVPSRFSGSGSGTDFTLTISSLQPEDFATYFCQQYYGYPFTFGQGTKLEIK
In the case of B2, the binding entry is listed as “binds”.
